From patent US20030022317

Tested on: N.BstNBI nicking endonuclease
Test: enzyme reaction in vitro
Details: purified native protein
[1] = site within plasmid pECV1, three fragments released after nicking and heating to 65 C

Sequence: GAGTCTCAGACTATCTGGAGCGACTGACTC (double strand) [M3 12-nt cohesive-end cassette (paired N.BstNBI sites)]
- activity on this sequence [1]: active

Sequence: GAGTCTGACATCGAGCGCCTAGCATTAGTCAGACTC (double strand) [N1 18-nt cohesive-end cassette (paired N.BstNBI sites)]
- activity on this sequence (site within plasmids pAZY2, pECF11, pECH1, fragments released after nicking and heating to 65-75 C): active

Sequence: GAGTCTCAGCCTGTTAGCGATGGTACATGACGACTC (double strand) [N3 18-nt cohesive-end cassette (paired N.BstNBI sites)]
- activity on this sequence (site within plasmids pECF11 and pECH1, fragments released after nicking and heating to 65 C): active

Sequence: GAGTCAGCTCAATGTTGCCAGTCAGGACTC (double strand) [M1 12-nt cohesive-end cassette (paired N.BstNBI sites)]
- activity on this sequence [1]: active

Sequence: GAGTCCGATTGACCTAAGCGGATACTCTGACGACTC (double strand) [N2 18-nt cohesive-end cassette (paired N.BstNBI sites)]
- activity on this sequence (site within plasmids pAZY2 and pECH1, fragments released after nicking and heating): active

Sequence: GAGTCCGATATTTACGGGCCACGTAGACTC (double strand) [M2 12-nt cohesive-end cassette (paired N.BstNBI sites)]
- activity on this sequence [1]: active

The exact form of at least one protein or probe is not confirmed.
